According to the supplement of paper PMC8728848:
This is one part of the list.

How the values were obtained:
Assay in all cases: glycan array binding signal (z-score within array); higher = stronger binding
Settings in all cases: glycan notation: IUPAC condensed, linker removed
Gal(a1-3)GalNAc = biological target: Gal(a1-3)GalNAc
Summary of the method: (§1)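 The binding signal is a Z-score computed within each array. Data were drawn from 3228 arrays in the Consortium for Functional Glycomics database, restricted to those with a known protein sequence. Scores were averaged over arrays of the same protein sequence at different concentrations or buffers, and over linkers, and negative values can be taken as non-binding.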

[1] = biological target: Gal(a1-3)[Gal(a1-4)]Gal(b1-4)GlcNAc
Summary of the method: as §1

[2] = biological target: Gal(a1-4)Gal(b1-3)GlcNAc(b1-2)Man(a1-3)[Gal(a1-4)Gal(b1-3)GlcNAc(b1-2)Man(a1-6)]Man(b1-4)GlcNAc(b1-4)GlcNAc
Summary of the method: as §1

Gal(a1-4)Gal(b1-4)Glc = biological target: Gal(a1-4)Gal(b1-4)Glc
Summary of the method: as §1

Gal(a1-4)Gal(b1-4)GlcNAc = biological target: Gal(a1-4)Gal(b1-4)GlcNAc
Summary of the method: as §1

[3] = biological target: Gal(a1-4)Gal(b1-4)GlcNAc(b1-2)Man(a1-3)[Gal(a1-4)Gal(b1-4)GlcNAc(b1-2)Man(a1-6)]Man(b1-4)GlcNAc(b1-4)GlcNAc
Summary of the method: as §1

[4] = biological target: Gal(a1-4)Gal(b1-4)GlcNAc(b1-3)Gal(b1-4)Glc
Summary of the method: as §1

Gal(a1-4)GlcNAc = biological target: Gal(a1-4)GlcNAc
Summary of the method: as §1

Gal(a1-6)Glc = biological target: Gal(a1-6)Glc
Summary of the method: as §1

Gal(b1-2)Gal = biological target: Gal(b1-2)Gal
Summary of the method: as §1

Gal(b1-3)Gal = biological target: Gal(b1-3)Gal
Summary of the method: as §1

Gal(b1-3)Gal(b1-4)GlcNAc = biological target: Gal(b1-3)Gal(b1-4)GlcNAc
Summary of the method: as §1

[5] = biological target: Gal(b1-3)Gal(b1-4)GlcNAc(b1-2)Man(a1-3)[Gal(b1-3)Gal(b1-4)GlcNAc(b1-2)Man(a1-6)]Man(b1-4)GlcNAc(b1-4)GlcNAc
Summary of the method: as §1

Gal(b1-3)GalNAc = biological target: Gal(b1-3)GalNAc
Summary of the method: as §1

[6] = biological target: Gal(b1-3)GalNAc(a1-3)[Fuc(a1-2)]Gal(b1-4)Glc
Summary of the method: as §1

[7] = biological target: Gal(b1-3)GalNAc(a1-3)[Fuc(a1-2)]Gal(b1-4)GlcNAc
Summary of the method: as §1

[8] = biological target: Gal(b1-3)GalNAc(b1-3)Gal(a1-4)Gal(b1-4)Glc
Summary of the method: as §1

[9] = biological target: Gal(b1-3)GalNAc(b1-4)Gal(b1-4)Glc
Summary of the method: as §1

[10] = biological target: Gal(b1-3)GalNAc(b1-4)[Neu5Ac(a2-3)]Gal(b1-4)Glc
Summary of the method: as §1

Gal(b1-3)GlcNAc = biological target: Gal(b1-3)GlcNAc
Summary of the method: as §1

[11] = biological target: Gal(b1-3)GlcNAc(a1-6)Gal(b1-4)GlcNAc
Summary of the method: as §1

[12] = biological target: Gal(b1-3)GlcNAc(b1-2)Man(a1-3)[Gal(b1-3)GlcNAc(b1-2)Man(a1-6)]Man(b1-4)GlcNAc(b1-4)GlcNAc
Summary of the method: as §1

B1: SspB (Streptococcus gordonii), P16952 (protein)
chain: MKNKKEVYGFRKSKVAKTLCGAVLGTALIAFADKAVFADEVTETTSTSTVEVATTGNPATNLPEAQGEMSQVAKESQAKAGSKESALPVEVSSADLDKAVADAKSAGVKVVQDETKDKGTATTATDNAQKQDEIKSDYAKQAEEIKTTTEAYKKEVAAHQAETDKINAENKAADDKYQKDLKSHQEEVEKINTANATAKAEYEAKLAQYQKDLATVKKANEDSQQDYQNKLSAYQTELARVQKANAEAKEAYEKAVKENTAKNEALKVENEAIKQRNETAKATYEAAMKQYEADLAAIKKANEDNDADYQAKLAAYQTELARVQKANAEAKEAYDKAVKENTAKNTAIQAENEAIKQRNETAKATYDAAVKKYEADLAAVKQANATNEADYQAKLAAYQTELARVQKANADAKATYEKAVEDNKAKNAAIKAENEEIKQRNAVAKTDYEAKLAKYEADLAKYKKEFAAYTAALAEAESKKKQDGYLSEPRSQSLNFKSEPNAIRTIDSSVHQYGQQELDALVKSWGISPTNPDRKKSRAYSYFNAINSNNTYAKLVLEKDKPVDVTYTGLKNSSFNGKKISKVVYTYTLKETGFNDGTKMTMFASSDPTVTAWYNDYFTSTNINVKVKFYDEEGQLMNLTGGLVNFSSLNRGNGSGAIDKDAIESVRNFNGRYIPISGSSIKIHENNSAYADSSNAEKSLGARWNTSEWDTTSSPNNWYGAIVGEITQSEISFNMASSKSGNIWFAFNSNINAIGVPTKPVAPTAPTQPMYETEKPLEPAPVAPSYENEPTPPVKTPDQPEPSKPEEPTYETEKPLEPAPVAPSYENEPTPPVKTPDQPEPSKPEEPNYETEKPLEPAPVAPSYENEPTPPVKIPDQPEPSKPEEPTYDPLPTPPLAPTPKQLPTPPVVPTVHFHYSSLLAQPQINKEIKNEDGVDIDRTLVAKQSIVKFELKTEALTAGRPKTTSFVLVDPLPTGYKFDLDATKAASTGFDTTYDEASHTVTFKATDETLATYNADLTKPVETLHPTVVGRVLNDGATYTNNFTLTVNDAYGIKSNVVRVTTPGKPNDPDNPNNNYIKPTKVNKNKEGLNIDGKEVLAGSTNYYELTWDLDQYKGDKSSKEAIQNGFYYVDDYPEEALDVRPDLVKVADEKGNQVSGVSVQQYDSLEAAPKKVQDLLKKANITVKGAFQLFSADNPEEFYKQYVATGTSLVITDPMTVKSEFGKTGGKYENKAYQIDFGNGYATEVVVNNVPKITPKKDVTVSLDPTSENLDGQTVQLYQTFNYRLIGGLIPQNHSEELEDYSFVDDYDQAGDQYTGNYKTFSSLNLTMKDGSVIKAGTDLTSQTTAETDATNGIVTVRFKEDFLQKISLDSPFQAETYLQMRRIAIGTFENTYVNTVNKVAYASNTVRTTTPIPRTPDKPTPIPTPKPKDPDKPETPKEPKVPSPKVEDPSAPIPVSVGKELTTLPKTGTNDATYMPYLGLAALVGFLGLGLAKRKED
glycan array binding signal (z-score) (Gal(a1-3)GalNAc): 0.141 | glycan array binding signal (z-score) [1]: -1.23 | glycan array binding signal (z-score) [2]: 0.508 | glycan array binding signal (z-score) (Gal(a1-4)Gal(b1-4)Glc): -1.22 | glycan array binding signal (z-score) (Gal(a1-4)Gal(b1-4)GlcNAc): -0.016 | glycan array binding signal (z-score) [3]: 0.457 | glycan array binding signal (z-score) [4]: 0.386 | glycan array binding signal (z-score) (Gal(a1-4)GlcNAc): -0.871 | glycan array binding signal (z-score) (Gal(a1-6)Glc): 0.072 | glycan array binding signal (z-score) (Gal(b1-2)Gal): -0.166 | glycan array binding signal (z-score) (Gal(b1-3)Gal): 0.527 | glycan array binding signal (z-score) (Gal(b1-3)Gal(b1-4)GlcNAc): 0.644 | glycan array binding signal (z-score) [5]: -0.672 | glycan array binding signal (z-score) (Gal(b1-3)GalNAc): 0.725 | glycan array binding signal (z-score) [6]: 0.565 | glycan array binding signal (z-score) [7]: 0.035 | glycan array binding signal (z-score) [8]: 1.1 | glycan array binding signal (z-score) [9]: 1.1 | glycan array binding signal (z-score) [10]: -1.62 | glycan array binding signal (z-score) (Gal(b1-3)GlcNAc): -0.006 | glycan array binding signal (z-score) [11]: 1.91 | glycan array binding signal (z-score) [12]: 0.616
